Library screen at single concentrations

T. brucei: 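Whole-parasite assay of Trypanosoma brucei over 72 hours; the read-out is not stated. Concentration: 30 µM. Direction is inferred from retests: higher values go with stronger inhibition. Values scatter widely below zero; nearly all retest evidence comes from the higher of the two concentrations used. Size under these conditions: about 64,000 compounds, about 940 of them at 50% or above in at least one test.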
Toxoplasma: 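Assay of Toxoplasma gondii numbers, read through their beta-galactosidase reporter with a colour substrate. Concentration: 10 µM. The record gives no direction; the compounds picked for IC50 retests had high values, so higher reads as fewer parasites. About 67,000 compounds were tested under these conditions; 0.38% (about 260) showed 50% or more at least once.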

Values are the deposited “Percent Effect”, in %.
The controls that fix the scale are not given in the record; negative values are as filed.
This is an unselected part of the compounds tested.
A dash means the value is not listed here; it may have been measured.

| Compound | T. brucei | Toxoplasma |
|---|---|---|
| `O=C1CC(c2ccc(Cl)c(Cl)c2)c2c(n3ccsc3nc2=O)N1` (stereo unspecified) | -10.79% | 3.149% |
| `Cc1cc(C2CCCN(CCC(=O)N3CCc4ccccc43)C2)n[nH]1` (stereo unspecified) | -5.007% | 4.016% |
| `CC(C)C1CN(c2cnccn2)CCC(=O)N1Cc1ccc(F)cc1` (stereo unspecified) | -20.4% | -3.074% |
| `CC1CCc2nc(O)c(C(=O)NCc3ccncc3)cc2C1` (stereo unspecified) | -40.82% | -8.61% |
| `[H][C@@]12CCCO[C@]1([H])[C@H](NC(=O)CC1CC1)CN(Cc1ccoc1)C2` | -15.63% | -2.254% |
| `Cc1nc(CN(C)C2CCN(CC3CCC3)C2)no1` (stereo unspecified) | 1.245% | -35.85% |
| `COCCN(Cc1ccc(C)cc1)CC1CCOC1` (stereo unspecified) | 10.13% | -7.904% |
| `Cc1cccc(NC(=O)Cn2nc3ccccn3c2=O)c1C` | -7.509% | 22.33% |
| `Cc1c[nH]c(C2CCCN(Cc3cccc(C(=O)O)c3)C2)n1` (stereo unspecified) | -9.292% | 4.537% |
| `COCCCN(CCOC)Cc1nc2c(cnn2C)c(=O)[nH]1` | -1.358% | -15.1% |
| `[H][C@@]12CCN(C(=O)C3CCOCC3)C[C@@]1([H])O[C@@H](c1nc(C)no1)C2` | - | -2.205% |
| `CN(C)C(=O)CN1CCOCC2(CCN(CC3CCOC3)CC2)C1.O=C(O)C(F)(F)F.O=C(O)C(F)(F)F` (stereo unspecified) | -62.25% | -1.323% |
| `CN1CCCC2(CCN(C(=O)CCn3cncn3)C2)C1=O` (stereo unspecified) | 40.71% | -9.62% |
| `CC(C(=O)NCC(C)(C)c1ccc2c(c1)OCCO2)n1cncn1` (stereo unspecified) | -15.36% | 3.905% |
| `CCCNC(=O)c1cn(C(C)(C)C)c2ncccc12` | 8.185% | 5.297% |
| `O=C(CN1CCOC(Cn2cccn2)C1)Nc1cccnc1` (stereo unspecified) | -60.67% | 24.53% |
| `CC1CCC2(CC1)Nc1ccccc1CO2` (stereo unspecified) | -9.223% | 15.18% |
| `CC(C1CCN(Cc2ccccc2OC(F)F)CC1)N1CCOCC1` (stereo unspecified) | -14.79% | -37.23% |
| `Cc1c(Cl)cccc1NC(=O)Cn1cc(C(=O)O)ccc1=O` | -9.648% | 4.656% |
| `COc1cccc2ccn(CC(=O)NCC(C)C)c12` | -1.717% | 18.48% |
| `O=C(O)C(F)(F)F.O=C(O)C(F)(F)F.[H][C@@]12CCN(c3nnc(C)s3)[C@]1([H])CC[C@@H](C(=O)NCc1ccccn1)O2` | 22.77% | 0.1784% |
| `O=C(NC1CC1)N1CCc2ncnc(-c3ccncc3)c2CC1.O=C(O)C(F)(F)F` | -32.95% | 3.846% |
| `Cc1ncc(-c2ccncc2)c(C2CCCN(C(=O)c3ccno3)C2)n1` (stereo unspecified) | -21.92% | 3.239% |
| `Cn1cc(C2CCCN2CCC(=O)N2CCc3sccc3C2)cn1` (stereo unspecified) | -15.71% | 3.143% |
| `CNC(=O)c1cc2c(nc1N(C)C)CCN(S(=O)(=O)N(C)C)CC2.O=C(O)C(F)(F)F` | -33.99% | -7.662% |
| `O=C(c1cccs1)N1CCCn2cnc(COCC3CC3)c2C1` | -17.21% | -5.97% |
| `O=C(NCC1COCCO1)c1csc(Cc2ccccc2)n1` (stereo unspecified) | -13.48% | -5.452% |
| `CSc1nc2cc(C)n(CC(=O)Nc3nccs3)c2c(=O)n1CC(C)C` | -25.81% | -0.9712% |
| `CC(C(=O)N1CCCN(c2ncccc2C#N)CC1)n1cncn1` (stereo unspecified) | 8.598% | -7.17% |
| `Cc1ccc(F)c(CNc2ccn(CCC(N)=O)n2)c1` | -24.38% | 6.351% |
| `c1csc(C2(NCc3csc(C4CC4)n3)CCCC2)n1` | -2.726% | 14.8% |
| `COc1ccc(CNCc2c(C)nc3sc(C)cn23)c(OC)c1OC` | -24.41% | -42.55% |
| `Cn1cccc(NC(=O)N2CCC(Cc3ccccc3)C2)c1=O` (stereo unspecified) | 22.08% | -0.05348% |
| `CN1[C@H](CO)C[C@H](CNCc2ccc(Cl)c(F)c2)[C@@H]1c1ccccc1F` | 5.705% | -0.5288% |
| `COc1cc(C)ccc1C(=O)N1C[C@@H](CN(C)CCO)[C@@H](CO)C1` | -41.25% | 7.659% |
| `O=C(CN1C=Nc2ccccc2S1(=O)=O)NCc1ccccc1F` | -2.488% | -25.98% |
| `CN(Cc1noc(C2CC2)n1)C1CCN(CC(=O)N2CCOCC2)C1` (stereo unspecified) | -13.35% | 28.76% |
| `CCn1ccnc1CN1CCN(CCc2ccccn2)CC1C` (stereo unspecified) | -8.395% | 18.74% |
| `CN(C(=O)CSc1ncc[nH]1)C1CC1` | -33.11% | 9.074% |
| `Cc1ccc(O)c(CN(Cc2ccccc2)Cc2nccs2)n1` | -33.55% | -0.2773% |
| `CN(C)c1cc2c(nn1)CCN(C(=O)c1ccc(-n3cccn3)nc1)C2` | -61.38% | -14.4% |
| `CNC(=O)C(C)S(=O)(=O)Cc1csc(-c2cccs2)n1` (stereo unspecified) | -60.03% | 2.229% |
| `Cn1ncc(NC(=O)Cn2cc(-c3ccc(F)cn3)cn2)n1` | -17.95% | -0.1588% |
| `CC(=O)N[C@@H]1CN(Cc2ccccc2-n2cccn2)C[C@H]1C(C)C` | -29.98% | 2.544% |
| `COc1ccc(-c2noc([C@@H]3C[C@H](NC(=O)NC(C)C)CN3C)n2)cc1` | -50.34% | 7.506% |
| `CC(C)c1nn(C)cc1CNCc1cccc(N(C)C)c1` | -31.73% | -1.377% |
| `Cc1cn2c(n1)CCC(NC(=O)c1cc(C(C)C)no1)C2` (stereo unspecified) | -13.26% | -1.122% |
| `CCC(=O)N(C)CC(=O)Nc1ccc(Br)cn1` | -8.198% | 2.451% |
| `[H][C@@]12C[C@@H](OCc3ccccc3)C[C@]1([H])CN(CC(=O)N1CCOCC1)C2` | -15.88% | 5.799% |
| `COc1ccc(OCCN(C)S(=O)(=O)c2cnn(C)c2)cc1` | - | 17.01% |
| `CSc1nnc(CNC(=O)Nc2ccccc2Br)n1C` | 9.123% | -37.94% |
| `Cc1ccccc1CN(C)C(=O)CN1CCCC(Cn2cncn2)C1` (stereo unspecified) | - | -0.8028% |
| `CS(=O)(=O)c1ccc(NCCC2CCCO2)c(S(C)(=O)=O)c1` (stereo unspecified) | -9.7% | 17.06% |
| `Cc1ccc(CN2CCCC(c3cnccn3)C2)s1` (stereo unspecified) | -4.286% | -6.732% |
| `Cc1nn(-c2ccc(C(=O)O)cc2)c2c1C(C(C)C)SCC(=O)N2` (stereo unspecified) | - | -4.413% |
| `C=Cn1cc(CN2CCN(CC3(c4ccccc4)CC3)CC2)c(C)n1` | -15.62% | 6.223% |
| `Cc1cc(C(=O)NCc2cccs2)c2c(C3CCCN3)noc2n1` (stereo unspecified) | - | 1.876% |
| `O=C(NCC1CCOC1)c1csc(-c2ccc(Cl)cc2)n1` (stereo unspecified) | 6.159% | 2.409% |
| `CNS(=O)(=O)c1ccc(CNC(=O)c2cc(C)no2)cc1` | -10.54% | 4.324% |
| `Cc1cc(NC(=O)NCc2nncn2C)ccc1OC(C)C` | 13.91% | -1.86% |
| `CN1C[C@@H](F)[C@@H](OCc2nc3ccccc3n2C)C1` | -9.245% | 2.291% |
| `COc1ccsc1C(=O)NCCNc1ccccc1` | 11.61% | 0.5907% |
| `CCC(CC)n1nc(C)cc1NC(=O)CC1CCOCC1` | -16.26% | -1.848% |
| `O=C(COCC(=O)N(c1ccccc1)c1ccccc1)N1CCCC1` | -12.81% | 9.626% |
| `[H][C@@]12CN(C(=O)c3ccccc3C)C[C@]1([H])[C@H]2CN(C)CCc1ccccn1` | -14.46% | 5.874% |

Once more, the final 7:

Compound	T. brucei	Toxoplasma
CNS(=O)(=O)c1ccc(CNC(=O)c2cc(C)no2)cc1	-10.54%	4.324%
Cc1cc(NC(=O)NCc2nncn2C)ccc1OC(C)C	13.91%	-1.86%
CN1C[C@@H](F)[C@@H](OCc2nc3ccccc3n2C)C1	-9.245%	2.291%
COc1ccsc1C(=O)NCCNc1ccccc1	11.61%	0.5907%
CCC(CC)n1nc(C)cc1NC(=O)CC1CCOCC1	-16.26%	-1.848%
O=C(COCC(=O)N(c1ccccc1)c1ccccc1)N1CCCC1	-12.81%	9.626%
[H][C@@]12CN(C(=O)c3ccccc3C)C[C@]1([H])[C@H]2CN(C)CCc1ccccn1	-14.46%	5.874%

Measurements from “University of Dundee, Small-Polar-MMV Screening Library” (2021), ChEMBL document CHEMBL3988442.